{
  "source": "patent US20060148828A1",
  "about": "“Combination comprising a CDK inhibitor and a topoisomerase 1 inhibitor for the treatment of cancer and other proliferative diseases” (Cyclacel Limited, priority 2003, published 2006)",
  "tested_on": "PKC",
  "data": [
    {"smiles": "CC[C@H](CO)Nc1nc(NCc2ccccc2)c2ncn(C(C)C)c2n1", "note": "[roscovitine, 6-benzylamino-2-[(R)-1-ethyl-2-hydroxyethylamino]-9-isopropylpurine]", "values": [
      {"measurement": "IC50", "value": "> 50", "unit": "µM"}
    ]}
  ]
}
